Measurements published in doi:10.1101/572156.
Where a chain is given by its changes, count along the chain named. Read-outs that look alike come from different tables or passages of the source. No constants are given. Whether binding was seen depends on the method and setting. Binding seen in cells or lysates may run through a third protein. Here binding means that the protein was enriched with, or labelled near, the bait; the list need not be complete. Tags and fused reporters may be left off the sequences shown. Values belong to the molecule of their own block, whether it stands above or below them.

Amino acid sequences for entries named in this document (tags omitted).
UniProt P17066: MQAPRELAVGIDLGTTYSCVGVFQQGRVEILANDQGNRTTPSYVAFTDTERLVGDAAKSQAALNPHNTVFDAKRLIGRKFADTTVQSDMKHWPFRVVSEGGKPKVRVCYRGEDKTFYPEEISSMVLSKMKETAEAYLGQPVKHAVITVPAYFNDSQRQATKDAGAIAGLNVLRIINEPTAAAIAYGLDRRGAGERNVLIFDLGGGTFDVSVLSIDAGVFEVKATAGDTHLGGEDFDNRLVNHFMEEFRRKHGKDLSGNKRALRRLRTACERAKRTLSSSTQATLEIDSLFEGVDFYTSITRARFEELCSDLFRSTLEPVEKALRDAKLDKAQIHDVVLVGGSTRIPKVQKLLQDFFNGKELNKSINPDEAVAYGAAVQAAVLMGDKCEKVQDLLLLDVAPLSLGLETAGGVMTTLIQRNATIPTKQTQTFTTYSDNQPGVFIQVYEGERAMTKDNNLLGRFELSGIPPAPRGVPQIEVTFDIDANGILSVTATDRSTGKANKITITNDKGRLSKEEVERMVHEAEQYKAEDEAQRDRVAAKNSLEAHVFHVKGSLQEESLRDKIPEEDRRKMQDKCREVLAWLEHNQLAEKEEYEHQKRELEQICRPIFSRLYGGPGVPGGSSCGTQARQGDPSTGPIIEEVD
UniProt P11940: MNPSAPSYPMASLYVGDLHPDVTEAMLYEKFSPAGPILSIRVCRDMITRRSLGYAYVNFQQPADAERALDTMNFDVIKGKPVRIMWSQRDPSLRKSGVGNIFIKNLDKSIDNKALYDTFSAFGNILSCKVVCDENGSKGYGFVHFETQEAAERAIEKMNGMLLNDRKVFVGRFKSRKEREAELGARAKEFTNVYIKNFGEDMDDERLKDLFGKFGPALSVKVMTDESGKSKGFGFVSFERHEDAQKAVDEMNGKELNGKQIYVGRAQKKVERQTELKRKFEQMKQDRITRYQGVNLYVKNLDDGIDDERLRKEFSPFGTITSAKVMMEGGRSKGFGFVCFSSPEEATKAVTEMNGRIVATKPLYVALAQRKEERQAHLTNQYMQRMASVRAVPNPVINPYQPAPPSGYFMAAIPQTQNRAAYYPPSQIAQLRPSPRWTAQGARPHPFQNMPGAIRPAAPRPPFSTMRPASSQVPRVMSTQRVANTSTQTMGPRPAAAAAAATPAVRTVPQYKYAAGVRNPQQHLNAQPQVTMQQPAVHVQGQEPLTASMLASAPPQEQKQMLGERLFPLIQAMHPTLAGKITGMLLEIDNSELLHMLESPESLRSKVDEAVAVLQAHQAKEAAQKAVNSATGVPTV
UniProt O60506: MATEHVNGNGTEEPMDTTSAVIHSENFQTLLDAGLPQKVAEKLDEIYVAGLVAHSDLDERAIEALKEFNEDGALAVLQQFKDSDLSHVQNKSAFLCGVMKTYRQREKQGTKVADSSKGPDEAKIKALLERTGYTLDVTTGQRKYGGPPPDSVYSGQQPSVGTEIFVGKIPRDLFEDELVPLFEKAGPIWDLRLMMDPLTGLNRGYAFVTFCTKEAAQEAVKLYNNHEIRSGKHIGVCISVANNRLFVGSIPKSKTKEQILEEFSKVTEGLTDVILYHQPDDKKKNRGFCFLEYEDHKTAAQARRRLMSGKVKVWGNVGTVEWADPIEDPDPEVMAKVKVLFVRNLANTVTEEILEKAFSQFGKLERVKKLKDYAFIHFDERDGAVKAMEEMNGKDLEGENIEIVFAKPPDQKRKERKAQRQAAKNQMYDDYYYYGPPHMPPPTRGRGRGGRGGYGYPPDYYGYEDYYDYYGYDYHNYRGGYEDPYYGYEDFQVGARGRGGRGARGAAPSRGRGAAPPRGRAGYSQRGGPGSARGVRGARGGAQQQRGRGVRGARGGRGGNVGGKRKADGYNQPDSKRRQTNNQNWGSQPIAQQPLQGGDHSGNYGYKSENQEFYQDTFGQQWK
UniProt Q92841: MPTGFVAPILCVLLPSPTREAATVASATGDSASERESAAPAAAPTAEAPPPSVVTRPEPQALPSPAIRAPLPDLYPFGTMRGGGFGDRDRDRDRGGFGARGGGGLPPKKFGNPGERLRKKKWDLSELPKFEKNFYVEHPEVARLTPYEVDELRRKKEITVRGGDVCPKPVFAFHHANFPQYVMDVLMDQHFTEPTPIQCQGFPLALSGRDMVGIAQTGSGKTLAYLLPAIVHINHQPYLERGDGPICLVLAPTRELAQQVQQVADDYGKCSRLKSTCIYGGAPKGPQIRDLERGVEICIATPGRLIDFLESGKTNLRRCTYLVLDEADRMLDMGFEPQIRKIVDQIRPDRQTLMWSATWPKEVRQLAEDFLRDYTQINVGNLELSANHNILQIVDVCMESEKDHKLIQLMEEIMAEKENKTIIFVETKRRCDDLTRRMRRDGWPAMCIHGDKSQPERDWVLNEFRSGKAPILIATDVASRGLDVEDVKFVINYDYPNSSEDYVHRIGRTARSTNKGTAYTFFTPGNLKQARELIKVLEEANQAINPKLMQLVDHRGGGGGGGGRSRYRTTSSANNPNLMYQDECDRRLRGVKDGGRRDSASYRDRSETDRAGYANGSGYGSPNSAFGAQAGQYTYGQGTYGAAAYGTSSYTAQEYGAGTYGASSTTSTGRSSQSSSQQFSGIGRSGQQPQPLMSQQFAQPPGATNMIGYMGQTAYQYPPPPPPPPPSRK
UniProt Q15717: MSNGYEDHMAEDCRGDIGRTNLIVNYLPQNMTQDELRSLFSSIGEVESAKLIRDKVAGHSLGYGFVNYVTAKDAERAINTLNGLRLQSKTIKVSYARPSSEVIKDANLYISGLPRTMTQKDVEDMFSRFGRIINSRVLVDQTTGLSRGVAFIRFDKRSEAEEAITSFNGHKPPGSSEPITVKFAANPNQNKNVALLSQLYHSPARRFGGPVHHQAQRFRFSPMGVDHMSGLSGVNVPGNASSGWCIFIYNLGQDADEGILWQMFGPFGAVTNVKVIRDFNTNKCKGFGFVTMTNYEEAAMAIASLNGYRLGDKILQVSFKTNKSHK
UniProt P0DMV8: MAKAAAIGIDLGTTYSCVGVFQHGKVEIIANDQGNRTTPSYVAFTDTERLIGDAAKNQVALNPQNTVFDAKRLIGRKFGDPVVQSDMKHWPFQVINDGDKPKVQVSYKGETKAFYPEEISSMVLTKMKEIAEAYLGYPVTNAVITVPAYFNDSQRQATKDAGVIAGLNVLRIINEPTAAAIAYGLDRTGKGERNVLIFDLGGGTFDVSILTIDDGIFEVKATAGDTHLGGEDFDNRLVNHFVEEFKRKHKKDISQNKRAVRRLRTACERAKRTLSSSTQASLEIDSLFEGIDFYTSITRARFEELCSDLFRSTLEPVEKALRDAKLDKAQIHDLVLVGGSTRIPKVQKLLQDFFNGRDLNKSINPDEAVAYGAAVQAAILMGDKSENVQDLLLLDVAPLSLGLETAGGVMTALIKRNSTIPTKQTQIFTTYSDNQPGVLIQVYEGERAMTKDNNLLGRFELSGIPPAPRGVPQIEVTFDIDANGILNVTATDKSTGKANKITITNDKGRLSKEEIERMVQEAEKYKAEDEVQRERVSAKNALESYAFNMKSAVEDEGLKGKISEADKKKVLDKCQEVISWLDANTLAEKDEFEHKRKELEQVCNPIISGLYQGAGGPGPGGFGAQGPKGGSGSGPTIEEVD
UniProt Q9UPQ9: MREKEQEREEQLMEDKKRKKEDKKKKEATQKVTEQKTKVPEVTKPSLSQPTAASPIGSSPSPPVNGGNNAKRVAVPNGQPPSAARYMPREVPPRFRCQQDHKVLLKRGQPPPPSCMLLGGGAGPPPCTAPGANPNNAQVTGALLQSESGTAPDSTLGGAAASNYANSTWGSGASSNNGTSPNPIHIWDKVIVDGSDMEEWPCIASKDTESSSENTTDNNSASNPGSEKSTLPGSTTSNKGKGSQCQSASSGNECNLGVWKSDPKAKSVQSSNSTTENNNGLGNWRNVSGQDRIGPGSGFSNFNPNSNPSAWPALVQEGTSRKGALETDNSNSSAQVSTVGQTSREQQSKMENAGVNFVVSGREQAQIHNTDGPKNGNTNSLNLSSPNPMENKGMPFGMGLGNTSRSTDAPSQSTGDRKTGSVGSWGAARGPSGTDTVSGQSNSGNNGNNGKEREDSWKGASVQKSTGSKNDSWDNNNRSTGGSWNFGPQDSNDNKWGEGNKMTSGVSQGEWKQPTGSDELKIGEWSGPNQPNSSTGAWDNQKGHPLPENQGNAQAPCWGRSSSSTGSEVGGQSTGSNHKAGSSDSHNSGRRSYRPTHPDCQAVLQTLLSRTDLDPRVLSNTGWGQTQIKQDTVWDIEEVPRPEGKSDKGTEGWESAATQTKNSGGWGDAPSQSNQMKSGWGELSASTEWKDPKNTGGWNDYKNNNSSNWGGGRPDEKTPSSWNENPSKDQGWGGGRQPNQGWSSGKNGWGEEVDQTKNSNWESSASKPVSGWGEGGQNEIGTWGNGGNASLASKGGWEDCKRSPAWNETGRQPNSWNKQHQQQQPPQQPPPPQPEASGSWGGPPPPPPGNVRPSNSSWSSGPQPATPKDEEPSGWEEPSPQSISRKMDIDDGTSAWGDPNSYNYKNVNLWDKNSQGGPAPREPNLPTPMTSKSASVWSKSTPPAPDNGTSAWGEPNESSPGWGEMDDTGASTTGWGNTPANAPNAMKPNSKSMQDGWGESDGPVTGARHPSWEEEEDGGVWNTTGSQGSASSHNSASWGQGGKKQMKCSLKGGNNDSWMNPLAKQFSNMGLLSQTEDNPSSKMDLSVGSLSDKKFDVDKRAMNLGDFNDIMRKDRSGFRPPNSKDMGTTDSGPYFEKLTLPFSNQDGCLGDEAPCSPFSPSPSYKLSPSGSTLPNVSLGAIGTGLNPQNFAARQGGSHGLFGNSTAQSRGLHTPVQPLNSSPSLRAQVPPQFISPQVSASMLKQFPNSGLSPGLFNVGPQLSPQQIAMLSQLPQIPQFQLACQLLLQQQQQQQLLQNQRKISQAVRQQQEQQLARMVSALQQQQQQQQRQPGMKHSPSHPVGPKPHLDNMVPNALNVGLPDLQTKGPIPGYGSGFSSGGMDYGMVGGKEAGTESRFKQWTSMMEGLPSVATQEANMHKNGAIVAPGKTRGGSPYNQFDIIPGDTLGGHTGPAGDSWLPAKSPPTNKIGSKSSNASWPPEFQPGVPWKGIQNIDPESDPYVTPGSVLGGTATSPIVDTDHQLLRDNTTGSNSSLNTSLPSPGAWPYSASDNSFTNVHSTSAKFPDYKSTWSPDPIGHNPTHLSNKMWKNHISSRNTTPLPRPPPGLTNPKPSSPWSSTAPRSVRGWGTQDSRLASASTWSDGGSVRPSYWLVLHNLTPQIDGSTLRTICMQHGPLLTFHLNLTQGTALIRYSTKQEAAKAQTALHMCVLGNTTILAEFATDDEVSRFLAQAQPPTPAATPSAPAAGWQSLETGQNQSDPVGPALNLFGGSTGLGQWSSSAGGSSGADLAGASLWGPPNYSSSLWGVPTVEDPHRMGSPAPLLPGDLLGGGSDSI

Experiments:
Assay in all cases: affinity purification with mass spectrometry
[1] = biological target: T1, FLAG-tagged DND1 1-235 dsRBD truncation mutant (human) (UniProt Q8IYX4)
T1 sequence: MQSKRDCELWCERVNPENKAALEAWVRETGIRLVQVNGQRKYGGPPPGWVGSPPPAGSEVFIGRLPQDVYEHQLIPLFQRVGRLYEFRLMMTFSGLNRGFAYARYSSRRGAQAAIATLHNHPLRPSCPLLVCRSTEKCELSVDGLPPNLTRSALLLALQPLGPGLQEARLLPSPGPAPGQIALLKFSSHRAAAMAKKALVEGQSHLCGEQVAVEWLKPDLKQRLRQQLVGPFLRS

[2] = biological target: T2, FLAG-tagged DND1 wild-type (full-length human Dead End, 1-353) (human) (UniProt Q8IYX4)
T2 sequence: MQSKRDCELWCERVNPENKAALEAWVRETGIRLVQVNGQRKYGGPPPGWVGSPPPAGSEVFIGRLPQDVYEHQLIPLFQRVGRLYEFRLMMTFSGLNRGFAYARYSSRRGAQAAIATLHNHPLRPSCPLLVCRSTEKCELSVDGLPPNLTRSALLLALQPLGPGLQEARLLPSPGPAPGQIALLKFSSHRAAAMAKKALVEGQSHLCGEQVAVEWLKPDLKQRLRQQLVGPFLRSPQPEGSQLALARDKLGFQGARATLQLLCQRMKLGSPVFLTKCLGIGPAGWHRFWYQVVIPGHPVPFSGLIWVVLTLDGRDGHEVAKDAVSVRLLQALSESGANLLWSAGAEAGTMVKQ

[3] = biological target: T3, FLAG-tagged DND1 R98A (full-length, RRM1 RNP1 RNA binding mutant) (human) (UniProt Q8IYX4)
T3 sequence: T2 sequence with R98A

[4] = biological target: T3, FLAG-tagged DND1 R98A (full-length, RRM1 RNP1 RNA binding mutant) (human); remark: listed apart in the source
[5] = biological target: T2, FLAG-tagged DND1 wild-type (full-length human Dead End, 1-353) (human); remark: listed apart in the source

binding [1]: binds
binding [2]: binds
Molecule: HSPA6 (from UniProt P17066 1-643)

binding [3]: binds
binding [2]: binds
Molecule: PABPC1 (from UniProt P11940 1-636)

binding [3]: binds
binding [2]: binds
Molecule: SYNCRIP (from UniProt O60506 1-623)

binding [1]: binds
binding [2]: binds
Molecule: DDX17 (from UniProt Q92841 1-729)

binding [3]: binds
binding [2]: binds
Molecule: ELAVL1/HuR (from UniProt Q15717 1-326)

binding [1]: binds
binding [2]: binds
Molecule: HSPA1A (from UniProt P0DMV8 1-641)

binding [1]: binds
binding [2]: binds
Molecule: TNRC6B (from UniProt Q9UPQ9 1-1833)

binding [4]: binds
binding [5]: binds
B1: HNRNPL (protein, UniProt P14866 1-589)
chain: MSRRLLPRAEKRRRRLEQRQQPDEQRRRSGAMVKMAAAGGGGGGGRYYGGGSEGGRAPKRLKTDNAGDQHGGGGGGGGGAGAAGGGGGGENYDDPHKTPASPVVHIRGLIDGVVEADLVEALQEFGPISYVVVMPKKRQALVEFEDVLGACNAVNYAADNQIYIAGHPAFVNYSTSQKISRPGDSDDSRSVNSVLLFTILNPIYSITTDVLYTICNPCGPVQRIVIFRKNGVQAMVEFDSVQSAQRAKASLNGADIYSGCCTLKIEYAKPTRLNVFKNDQDTWDYTNPNLSGQGDPGSNPNKRQRQPPLLGDHPAEYGGPHGGYHSHYHDEGYGPPPPHYEGRRMGPPVGGHRRGPSRYGPQYGHPPPPPPPPEYGPHADSPVLMVYGLDQSKMNCDRVFNVFCLYGNVEKVKFMKSKPGAAMVEMADGYAVDRAITHLNNNFMFGQKLNVCVSKQPAIMPGQSYGLEDGSCSYKDFSESRNNRFSTPEQAAKNRIQHPSNVLHFFNAPLEVTEENFFEICDELGVKRPSSVKVFSGKSERSSSGLLEWESKSDALETLGFLNHYQMKNPNGPYPYTLKLCFSTAQHAS

binding [4]: binds
binding [5]: binds
B2: MOV10 (protein, UniProt Q9HCE1 1-1003)
chain: MPSKFSCRQLREAGQCFESFLVVRGLDMETDRERLRTIYNRDFKISFGTPAPGFSSMLYGMKIANLAYVTKTRVRFFRLDRWADVRFPEKRRMKLGSDISKHHKSLLAKIFYDRAEYLHGKHGVDVEVQGPHEARDGQLLIRLDLNRKEVLTLRLRNGGTQSVTLTHLFPLCRTPQFAFYNEDQELPCPLGPGECYELHVHCKTSFVGYFPATVLWELLGPGESGSEGAGTFYIARFLAAVAHSPLAAQLKPMTPFKRTRITGNPVVTNRIEEGERPDRAKGYDLELSMALGTYYPPPRLRQLLPMLLQGTSIFTAPKEIAEIKAQLETALKWRNYEVKLRLLLHLEELQMEHDIRHYDLESVPMTWDPVDQNPRLLTLEVPGVTESRPSVLRGDHLFALLSSETHQEDPITYKGFVHKVELDRVKLSFSMSLLSRFVDGLTFKVNFTFNRQPLRVQHRALELTGRWLLWPMLFPVAPRDVPLLPSDVKLKLYDRSLESNPEQLQAMRHIVTGTTRPAPYIIFGPPGTGKTVTLVEAIKQVVKHLPKAHILACAPSNSGADLLCQRLRVHLPSSIYRLLAPSRDIRMVPEDIKPCCNWDAKKGEYVFPAKKKLQEYRVLITTLITAGRLVSAQFPIDHFTHIFIDEAGHCMEPESLVAIAGLMEVKETGDPGGQLVLAGDPRQLGPVLRSPLTQKHGLGYSLLERLLTYNSLYKKGPDGYDPQFITKLLRNYRSHPTILDIPNQLYYEGELQACADVVDRERFCRWAGLPRQGFPIIFHGVMGKDEREGNSPSFFNPEEAATVTSYLKLLLAPSSKKGKARLSPRSVGVISPYRKQVEKIRYCITKLDRELRGLDDIKDLKVGSVEEFQGQERSVILISTVRSSQSFVQLDLDFNLGFLKNPKRFNVAVTRAKALLIIVGNPLLLGHDPDWKVFLEFCKENGGYTGCPFPAKLDLQQGQNLLQGLSKLSPSTSGPHSHDYLPQEREGEGGLSLQVEPEWRNEL
